Measurements: US11434267B2, “Peptides having reduced toxicity that stimulate cholesterol efflux” (The Regents of the University of California, priority 2013, dated 2022)
“Also recorded” adds a separate entry of the source. For part of these data: Not every detail of the peptide structures is certain; ends, links or a residue may be inferred. For part of these data: For at least one compound, name, drawing or mass did not settle the structure. Non-standard residues stand in square brackets, D forms with d. Residues, ends and D or L forms follow the SMILES beside them. No end group written: not given here. Cit = NC(=O)NCCC[C@H](N)C(=O)O

Protein sequences, listed by entry. Tags and fused reporters are not part of them. Lines headed by an entry give the natural chain unless they say otherwise; changes in a name come on top.
UniProt P41233: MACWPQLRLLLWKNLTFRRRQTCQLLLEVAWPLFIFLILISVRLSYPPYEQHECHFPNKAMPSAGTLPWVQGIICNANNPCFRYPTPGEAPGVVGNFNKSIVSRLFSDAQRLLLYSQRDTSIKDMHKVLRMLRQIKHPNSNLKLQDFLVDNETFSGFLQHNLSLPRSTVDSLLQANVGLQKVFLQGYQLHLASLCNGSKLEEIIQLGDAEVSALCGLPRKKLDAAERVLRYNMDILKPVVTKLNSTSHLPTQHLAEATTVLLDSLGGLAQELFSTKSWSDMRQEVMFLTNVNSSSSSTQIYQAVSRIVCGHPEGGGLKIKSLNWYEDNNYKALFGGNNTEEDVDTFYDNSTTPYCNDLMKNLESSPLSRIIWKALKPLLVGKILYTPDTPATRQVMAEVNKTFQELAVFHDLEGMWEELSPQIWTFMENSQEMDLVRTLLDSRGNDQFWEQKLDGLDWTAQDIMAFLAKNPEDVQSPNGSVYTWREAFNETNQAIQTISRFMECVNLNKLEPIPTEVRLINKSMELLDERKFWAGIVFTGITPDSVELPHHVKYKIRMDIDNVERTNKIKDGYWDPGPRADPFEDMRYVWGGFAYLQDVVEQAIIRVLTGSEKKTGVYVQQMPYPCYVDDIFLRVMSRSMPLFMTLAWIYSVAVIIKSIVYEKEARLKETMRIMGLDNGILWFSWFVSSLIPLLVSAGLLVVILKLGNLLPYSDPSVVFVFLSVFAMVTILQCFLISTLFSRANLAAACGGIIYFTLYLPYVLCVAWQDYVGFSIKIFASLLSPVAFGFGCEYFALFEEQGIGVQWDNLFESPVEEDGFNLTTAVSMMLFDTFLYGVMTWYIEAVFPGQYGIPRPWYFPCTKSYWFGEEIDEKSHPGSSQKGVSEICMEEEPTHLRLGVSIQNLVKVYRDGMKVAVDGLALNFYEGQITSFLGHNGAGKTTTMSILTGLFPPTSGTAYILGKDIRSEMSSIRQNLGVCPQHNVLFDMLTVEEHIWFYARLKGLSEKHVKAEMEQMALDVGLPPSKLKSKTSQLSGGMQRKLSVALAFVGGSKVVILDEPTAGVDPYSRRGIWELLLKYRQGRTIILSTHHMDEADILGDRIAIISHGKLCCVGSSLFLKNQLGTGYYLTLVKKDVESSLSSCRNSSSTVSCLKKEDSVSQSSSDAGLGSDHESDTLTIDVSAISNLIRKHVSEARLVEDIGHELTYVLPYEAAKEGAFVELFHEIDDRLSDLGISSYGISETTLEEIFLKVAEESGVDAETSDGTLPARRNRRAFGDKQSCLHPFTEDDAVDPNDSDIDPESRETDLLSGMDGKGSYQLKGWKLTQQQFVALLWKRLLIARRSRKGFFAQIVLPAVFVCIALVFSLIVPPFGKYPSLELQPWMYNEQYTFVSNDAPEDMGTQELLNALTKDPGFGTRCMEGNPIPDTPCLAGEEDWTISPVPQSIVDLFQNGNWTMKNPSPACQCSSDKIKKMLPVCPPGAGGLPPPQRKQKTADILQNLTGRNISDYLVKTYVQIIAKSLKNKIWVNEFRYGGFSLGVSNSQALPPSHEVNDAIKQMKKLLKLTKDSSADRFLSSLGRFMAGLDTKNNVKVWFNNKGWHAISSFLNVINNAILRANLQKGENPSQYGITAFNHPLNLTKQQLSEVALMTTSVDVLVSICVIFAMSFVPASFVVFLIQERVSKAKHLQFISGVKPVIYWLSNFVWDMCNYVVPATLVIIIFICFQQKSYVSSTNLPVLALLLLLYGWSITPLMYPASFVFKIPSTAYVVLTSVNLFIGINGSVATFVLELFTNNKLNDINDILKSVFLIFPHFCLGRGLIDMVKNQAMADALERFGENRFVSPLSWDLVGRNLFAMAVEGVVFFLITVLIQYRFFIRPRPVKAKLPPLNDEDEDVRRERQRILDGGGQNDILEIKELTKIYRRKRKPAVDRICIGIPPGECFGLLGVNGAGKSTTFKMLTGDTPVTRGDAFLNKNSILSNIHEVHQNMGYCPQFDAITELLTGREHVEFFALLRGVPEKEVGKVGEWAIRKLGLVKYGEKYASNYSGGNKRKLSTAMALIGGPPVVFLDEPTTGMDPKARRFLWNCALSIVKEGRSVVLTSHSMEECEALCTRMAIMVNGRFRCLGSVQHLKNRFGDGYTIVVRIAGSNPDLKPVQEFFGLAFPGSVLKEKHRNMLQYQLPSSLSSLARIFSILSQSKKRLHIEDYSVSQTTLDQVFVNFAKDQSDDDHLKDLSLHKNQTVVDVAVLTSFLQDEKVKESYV

Tests used:
[1] = scaled values = (raw log(P) + 2.061)/4.484; cited from earlier work
ABCA1 [2] = target: T1, ABCA1 (Mus musculus, UniProt P41233); test: ABCA1-dependent cholesterol efflux from [3H]cholesterol-labeled J774 macrophages with and without cAMP; format: cell-based
T1 construct: treated (18 h) with a cAMP analog to induce ABCA1 protein expression; endogenous in cells; host or cells: J774 macrophages
From the text: Suitable cholesterol efflux assays are described in, e.g., Bielicki, J. K and Oda, M. N., Biochemistry, 41:2089-2096 (2002); Jia et al., Biochem. Biophys. Res. Common., 297:206-213 (2002). In some embodiments, a polypeptide known to mediate cholesterol efflux (e.g., helix 9/10 of Apo A-I) is used to screen for additional mediators of cholesterol efflux in a cell based assay. For example, cell lines in which cholesterol efflux can be enhanced using a cAMP analog that up-regulates ABCA1 protein expression (e.g., J774 macrophages) can conveniently be used to assess the ability of a polypeptide of the present invention to mediate cholesterol efflux. The cells are incubated with labeled cholesterol (e.g., [^3H]cholesterol) under conditions appropriate for cholesterol uptake by the cells. Thus, cAMP or cAMP analogs (e.g., CPT-cAMP) are incubated with the cells for a suitable time before the initiation of cellular cholesterol efflux, i.e., prior to contacting the cells with a test polypeptide. Measurement of labeled cholesterol appearing in the medium is used to determine the cholesterol efflux mediating activity of the test polypeptide.
Aliphatic analogs of ATI-5261 lacking phenylalanine residues retained potent ABCA1 selective cholesterol efflux activity (FIG. 7). […] Results are expressed as the difference in cholesterol efflux (%/4 h) observed using cAMP treated vs. non-treated J774 cells. […]

C57Bl/6 mice [3] = test: Glucose tolerance test in fasted C57Bl/6 mice after single IP peptide injection; format: in vivo, mouse; settings: single IP 300 mg/kg, 2 g/kg glucose IP
Protocol: Peptide may additionally be screened for the ability to lower glucose using methods illustrated in the EXAMPLES section, e.g., Example 31. For example, the ability to lower glucose can be evaluated using ing animal models, such as mice or rats. Mice, e.g., C57Bl/6 mice, fed a normal lab chow diet are injected IP with a peptide that is undergoing evaluation, e.g., at a does of 300 mg/kg, and the glucose levels in the blood are measured at a time period, e.g. 6 hours, following injection and compared to the levels of blood glucose in a control animal that received PBS. Alternatively, peptides may be screened for the ability to lower glucose as illustrated in Example 36. […] Peptides may also be evaluated for glucose-lowering activity in animal models of obesity, e.g., DIO mice. Further, peptides may be evaluated for the ability to improve sensitivity to insulin, e.g., as described in Example 31 of the EXAMPLES section.
This example illustrates that CS6253 and T6991-2 lower blood glucose concentrations upon glucose challenge in C57Bl/6 mice (FIG. 51). […] Blood was collected from the tail vein at the indicated times and blood glucose measured using a glucometer. Panels A and B— Blood glucose concentrations expressed as mass values over time following glucose challenge, with corresponding area under the curve, respectively. […]

DIO mice [4] = test: Insulin tolerance test (ITT) in DIO mice; format: in vivo, mouse; settings: 10 or 30 mg/kg IP alternate days 6 weeks; insulin 0.75 Units/kg
ApoE3 mice = test: Brain ABC transporters in ApoE3 mice (hippocampus ELISA); format: in vivo, mouse; settings: 30 mg/kg IP, 5 weeks, vs PBS
human plasma = test: Cholesterol efflux activity of human plasma treated with lipid-free peptide (J774 cells); format: cell-based; settings: plasma + 300 μg/ml peptide 5 min 4° C., diluted to 1%, cAMP treated J774
Protocol: (FIG. 33). To test whether CS6253 exerts anti-atherogenic effects in a biological milieu, human plasma was exposed (5 min) to lipid-free peptide. Interactions of CS6253 with HDL in plasma and activity of plasma to stimulate cholesterol efflux was assessed; the latter using J774 macrophages labeled with [3H]cholesterol. Panel A—Cholesterol efflux activity of plasma treated with lipid-free peptides. Human plasma was incubated with 300 μg/ml peptides for 5 minutes (4° C.), diluted to 1% in serum-free RPMI-1640 culture medium and immediately added to [3H]cholesterol-labeled J774 cells. […] Panel B—Induction of preβ HDL upon treatment of human plasma with CS6253. Plasma was exposed to a small amount of peptide relative to endogenous apoA-I (1:10 mole ratio, respectively) and formation of preβ HDL assessed by 2D non-denaturing gradient gel electrophoresis (NDGGE) and western blot analysis. […] The results are consistent with the production of authentic preβ HDL particles composed entirely of endogenous apoA-I.
To test whether T6991-2 exerts anti-atherogenic effects in a biological milieu, human plasma was exposed (5 min) to lipid-free peptide. Interactions of T6991-2 with HDL in plasma and activity of plasma to stimulate cholesterol efflux was assessed using J774 macrophages labeled with [3H]cholesterol. Panel A—Cholesterol efflux activity of plasma treated with lipid-free peptides. […]

[5] = system: human apoE3 (huApoE3) replacement mice; test: AD study in human apoE3 replacement mice (hippocampus); format: in vivo, mouse
DIO mice [6] = test: Glucose tolerance test in DIO mice; format: in vivo, mouse; settings: 10 or 30 mg/kg IP alternate days 6 weeks; 1 g/kg glucose IP
HDL in plasma = test: Induction of preβ HDL in human plasma (2D NDGGE and western blot); format: biochemical; settings: peptide:apoA-I 1:10 mole ratio, apoA-I antibody
ABCA1 [7] = target: T1, ABCA1; test: ABCA1-dependent cholesterol efflux from [3H]cholesterol-labeled J774 macrophages with and without cAMP; format: cell-based; remark: listed apart in the source
ob/ob mice = test: Glucose tolerance test in ob/ob genetic mouse model of obesity; format: in vivo
[8] = system: human E4 (huApoE4) replacement mice; test: AD study in human apoE4 replacement mice (hippocampus); format: in vivo, mouse; settings: vs PBS
C57Bl/6 mice [9] = format: in vivo, mouse; settings: single IP 300 mg/kg, vs PBS
[10] = system: apoE deficient (apoE−/−) mice; test: Macrophage reverse cholesterol transport (RCT) to feces in vivo; parameters: species or system mouse; settings: 10 or 30 mg/kg IP, feces at 24 h
[11] = huApoE3 mice, 30 mg/kg/48 h IP 5 weeks
[12] = J774, cAMP vs no cAMP, 10 μg/ml lipid-free

## N[C@@H](CC(=O)O)C(=O)O [Aspartate]
[1]
  Hydrophobicity: 0.028

## CC[C@H](C)[C@H](NC(=O)[C@H](C)NC(=O)[C@H](C)NC(=O)[C@@H](NC(=O)[C@H](Cc1c[nH]c2ccccc12)NC(=O)[C@H](CCC(=O)O)NC(=O)[C@H](CCC(=O)O)NC(=O)[C@H](CC(C)C)NC(=O)[C@H](CCCCN)NC(=O)[C@H](CO)NC(=O)[C@H](CCCNC(N)=O)NC(=O)[C@@H](NC(=O)[C@@H](N)CCC(=O)O)C(C)C)[C@@H](C)CC)C(=O)N[C@@H](CCCNC(N)=O)C(=O)N[C@@H](CCC(=O)O)C(=O)N[C@H](C(=O)N[C@@H](C)C(=O)N[C@@H](CCC(=O)O)C(=O)N[C@@H](CCC(=O)O)C(=O)N[C@H](C(=O)N[C@@H](CC(C)C)C(=O)N[C@@H](C)C(=O)N[C@@H](CCCNC(=N)N)C(=O)N[C@@H](CC(C)C)C(=O)N[C@@H](CCCCN)C(=O)N[C@@H](CO)C(=O)O)[C@@H](C)CC)[C@@H](C)CC [Peptide T6991-2] (H-EV[Cit]SKLEEWIAAI[Cit]EIAEEILARLKS-OH)
ABCA1 [2]; J774, lipid-free, 10 μg/ml, vs full-length apoA-I
  rate kinetics of cholesterol efflux: same rate kinetics as full-length apoA-I
ABCA1 [2]; cAMP treated J774, dose response, 4 h
  peptide concentration at saturation of cholesterol efflux: 3 µg/mL
C57Bl/6 mice [3]
  blood glucose upon glucose challenge: lowered blood glucose concentrations upon glucose challenge
DIO mice [4]
  sensitivity to insulin (blood glucose in ITT): improved sensitivity to insulin
ApoE3 mice
  hippocampus ABCA1 concentration: significantly increased their concentrations
  hippocampus ABCG1 concentration: significantly increased their concentrations
  hippocampus apoE concentration: significantly increased their concentrations
Human plasma
  capacity of treated plasma to stimulate cholesterol efflux via ABCA1: possessed greater capacity to stimulate cholesterol efflux
[5]; 30 mg/kg/48 h IP for 5 weeks
  apoE levels in hippocampus: increased apoE levels
[5]; [11]
  P-Tau (AT-8), CA3 region of hippocampus: decreased
  amyloidβ42, CA3 region of hippocampus: decreased
DIO mice [6]
  blood glucose response upon glucose challenge: attenuated the blood glucose response upon glucose challenge
HDL in plasma
  preβ HDL formation: increase in preβ HDL
ABCA1 [7]; [12]
  ABCA1-dependent cholesterol efflux activity: functional, mediating high-levels of cholesterol efflux in an ABCA-dependent manner; also recorded: functional, mediating high-levels of cholesterol efflux in an ABCA1-dependent manner
ob/ob mice; 10 mg/kg IP alternate days 6 weeks, 1 g/kg glucose IP
  blood glucose response upon glucose challenge: attenuated the blood glucose response upon glucose challenge
ob/ob mice; after 6 h fasting
  C-peptide and insulin concentrations: lower in treated mice
[8]; 30 mg/kg/48 h IP 5 weeks
  P-Tau (AT-8), CA3 region of hippocampus: decreased
  amyloidβ42, CA3 region of hippocampus: decreased
[8]
  VGluT1 level, CA3 region of hippocampus: reversed the deficiency
  apoER2 level, CA3 region of hippocampus: reversed the deficiency
C57Bl/6 mice [9]; 6 h
  total cholesterol (TC) and cholesterol ester (CE): significantly lower
C57Bl/6 mice [9]; chow-fed, 4-6 h
  blood glucose: significantly lower
[10]
  macrophage reverse cholesterol transport: fecal [3H]sterol: stimulated macrophage reverse cholesterol transport (RCT) to feces in vivo

## EARSKAEEWLAALLELAEELLARAKS [Peptide T5211-2]
ABCA1 [7]; [12]
  ABCA1-dependent cholesterol efflux activity: displayed high-levels of cholesterol efflux activity

## EVRSKLEEWFAAFREFAEEFLARL [Peptide T5766-5]
ABCA1 [7]; J774, saturating concentration of 3 μg/ml
  ABCA1-dependent cholesterol efflux activity: without altering peptide activity

## EVRSKLEEWIAAIREIAEEILARLKS [Peptide T6991-1]
ABCA1 [7]; [12]
  ABCA1-dependent cholesterol efflux activity: functional, mediating high-levels of cholesterol efflux in an ABCA-dependent manner
